Results as given in PubChem BioAssay AID330 (DTP/NCI, 2004).
The list is a part of this screen's results and no random one: it is rich in T/C values a quarter to a half above the control, in often repeated tests (any T/C) and in doses without a T/C. Further doses and runs are listed elsewhere. T/C: endpoint of the treated group in % of that of the vehicle group. Some doses have a count of surviving animals in place of a T/C: the source holds a T/C of zero for them, seemingly a mark for toxic or unscored doses. Some doses without a T/C left all or most animals alive at the check, yet need not have been tolerated: survival well below the control is almost never listed, so the zero probably covers shortened survival too. Survivors were counted at the toxicity check, usually on the fifth day, unless a day is given; later deaths do not show. Schedule codes are those of the source, read here as Q, the interval in days (D) or hours (H), X, the number of doses. Some entries hold several experiments; the results are listed from low to high. Where survival is the endpoint, the PubChem record calls one and a half times the control and up active, and a quarter to a half above the control has no call in these data; cut-offs in other NCI protocols can differ. Some T/C values are followed by the survivors on the day toxicity was checked, most often the fifth; without a count, all were alive then. Signs of the kind (2×) count equal records among those shown.

Tested on: P388 leukemia ip, CD2F1 mice, survival T/C
Experiment: NCI In Vivo Anticancer Drug Screen. Data for tumor model P388 Leukemia (intraperitoneal) in CD2F1 (CDF1) mice
Details: T/C endpoint: median survival time, higher T/C = longer survival

In the case of `CCCCCCCCCCCCCCCC(=O)OCC1OC(n2ccc(N)nc2=O)C(O)C1O` (stereo not given), the T/C (dose: 1.0 mg/kg/injection, schedule: Q01DX009 (ip), vehicle: saline with Tween-80) was 145 % of control, the T/C (dose: 3.13 mg/kg/injection, schedule: Q04DX003 (ip), vehicle: saline with Tween-80) was 145 % of control and the T/C (dose: 5.0 mg/kg/injection, schedule: Q01DX001 (ip), vehicle: saline with Tween-80) was 125 % of control. The T/C (dose: 6.25 mg/kg/injection, schedule: Q01DX005 (ip), vehicle: Klucel (hydroxypropylcellulose) (HPC), evaluated on day 30) was 96, 123, 132, 138, 140, 142, 150, 153, 158, 163, 164, 165 (2×), 166, 170 (2×), 175, 176, 177 (2×), 178, 179, 180, 181, 182, 184, 191, 194, 195, 207 % of control (3×), the T/C (dose: 6.25 mg/kg/injection, schedule: Q01DX005 (ip), vehicle: Klucel (hydroxypropylcellulose) (HPC), evaluated on day 35) was 169 % of control [5 of 6 alive] and the T/C (dose: 6.25 mg/kg/injection, schedule: Q01DX009 (ip), vehicle: Klucel (hydroxypropylcellulose) (HPC), evaluated on day 30) was 122, 140, 142, 153, 161, 167, 183, 187, 197, 200 (3×), 202, 204, 205, 209 (3×), 210 (2×), 214, 215 (2×), 222 (2×), 223, 225, 227, 232, 234, 246, 254, 259 % of control. The T/C (dose: 6.25 mg/kg/injection, schedule: Q01DX009 (ip), vehicle: Klucel (hydroxypropylcellulose) (HPC), evaluated on day 35) was 188 and 228 % of control, the T/C (dose: 10.0 mg/kg/injection, schedule: Q01DX001 (ip), vehicle: saline with Tween-80) was 133 % of control and the T/C (dose: 12.5 mg/kg/injection, schedule: Q01DX005 (ip), vehicle: Klucel (hydroxypropylcellulose) (HPC), evaluated on day 30) was 154, 155, 166, 175, 177, 179, 183, 185, 189, 195 (2×), 196, 197 (2×), 198 [5 of 6 alive], 200, 205, 208, 211, 214, 215, 218, 220, 225, 228, 230, 238, 252 (2×), 262 (2×), 270 % of control. For the same compound, the T/C (dose: 12.5 mg/kg/injection, schedule: Q01DX005 (ip), vehicle: Klucel (hydroxypropylcellulose) (HPC), evaluated on day 35) was 213 % of control, the T/C (dose: 12.5 mg/kg/injection, schedule: Q01DX009 (ip), vehicle: Klucel (hydroxypropylcellulose) (HPC), evaluated on day 30) was 164, 169, 175, 177, 178, 202, 203, 204 [2 of 3 alive], 210, 218, 222, 225, 225 [5 of 6 alive], 227, 232, 233, 235 (2×), 240, 245 (3×), 247, 250, 253, 258, 260, 263, 265, 266, 267, 302, 316 % of control and the T/C (dose: 12.5 mg/kg/injection, schedule: Q01DX009 (ip), vehicle: Klucel (hydroxypropylcellulose) (HPC), evaluated on day 35) was 224 and 245 % of control. For the same compound, the T/C (dose: 18.75 mg/kg/injection, schedule: Q04DX002 (ip), vehicle: Klucel (hydroxypropylcellulose) (HPC), evaluated on day 30) was 132, 142, 145, 163, 171, 174, 175, 178, 183 (2×), 184, 185, 186, 187, 190, 192, 195, 197 (2×), 201, 204, 205, 207, 209 (2×), 211, 212, 218, 222, 243, 258 % of control, the T/C (dose: 18.75 mg/kg/injection, schedule: Q04DX002 (ip), vehicle: Klucel (hydroxypropylcellulose) (HPC), evaluated on day 35) was 159, 177, 182 % of control and the survivor count (dose: 18.75 mg/kg/injection, schedule: Q04DX002 (ip), vehicle: Klucel (hydroxypropylcellulose) (HPC)) was 3 of 3 and 6 of 6. For the same compound, the T/C (dose: 18.75 mg/kg/injection, schedule: Q04DX003 (ip), vehicle: Klucel (hydroxypropylcellulose) (HPC)) was 145, 159, 166, 169 [2 of 3 alive], 172, 197, 202 (2×), 203, 204, 210 (2×), 211, 216 (5×), 219 [5 of 6 alive], 222, 223, 224, 235 (3×), 236, 240, 243, 245 (2×), 250, 254, 255, 259 % of control, the T/C (dose: 25.0 mg/kg/injection, schedule: Q01DX005 (ip), vehicle: Klucel (hydroxypropylcellulose) (HPC), evaluated on day 30) was 105, 184, 190, 194, 195 (2×), 197, 200, 214, 215, 223 (2×), 233, 234, 236, 237, 238, 241 [2 of 3 alive], 243 (2×), 247, 252, 252 [2 of 3 alive], 255, 267 (2×), 272 (2×), 273, 276, 277, 288 % of control and the T/C (dose: 25.0 mg/kg/injection, schedule: Q01DX005 (ip), vehicle: Klucel (hydroxypropylcellulose) (HPC), evaluated on day 35) was 276 % of control. For the same compound, the T/C (dose: 25.0 mg/kg/injection, schedule: Q01DX009 (ip), vehicle: Klucel (hydroxypropylcellulose) (HPC), evaluated on day 30) was 168, 176, 180 [5 of 6 alive], 186 [5 of 6 alive], 192, 206, 212, 216, 225, 229, 237, 241, 245, 250 (2×), 256 (2×), 258 (2×), 263, 265, 265 [5 of 6 alive], 267, 274, 277, 278, 280, 290, 291, 294, 303, 322, 333 % of control, the T/C (dose: 25.0 mg/kg/injection, schedule: Q01DX009 (ip), vehicle: Klucel (hydroxypropylcellulose) (HPC), evaluated on day 35) was 288 and 332 % of control and the T/C (dose: 30.0 mg/kg/injection, schedule: Q01DX009 (ip), vehicle: saline with Tween-80) was 140 % of control. The T/C (dose: 31.25 mg/kg/injection, schedule: Q01DX001 (ip), vehicle: Klucel (hydroxypropylcellulose) (HPC)) was 100, 147, 164 [5 of 6 alive], 179, 190, 192, 216, 232 (2×), 234 % of control, the survivor count (dose: 31.7 mg/kg/injection, schedule: Q01DX001 (ip), vehicle: Klucel (hydroxypropylcellulose) (HPC)) was 6 of 6 and the T/C (dose: 31.75 mg/kg/injection, schedule: Q01DX001 (ip), vehicle: Klucel (hydroxypropylcellulose) (HPC)) was 105, 112, 121, 123, 148, 156, 163, 169 (2×), 171, 178, 183, 193, 198, 204, 205, 227, 229, 230, 247 % of control. For the same compound, the T/C (dose: 37.5 mg/kg/injection, schedule: Q04DX002 (ip), vehicle: Klucel (hydroxypropylcellulose) (HPC), evaluated on day 30) was 119, 129, 152, 189, 194, 195 [2 of 3 alive], 200, 204, 213, 214 (2×), 216, 219, 220, 225 [5 of 6 alive], 229, 230, 231 (2×), 232, 240 (2×), 243, 245, 248, 251, 254, 258, 260, 266, 269 % of control, the T/C (dose: 37.5 mg/kg/injection, schedule: Q04DX002 (ip), vehicle: Klucel (hydroxypropylcellulose) (HPC), evaluated on day 35) was 195 (2×) and 214 % of control and the survivor count (dose: 37.5 mg/kg/injection, schedule: Q04DX002 (ip), vehicle: Klucel (hydroxypropylcellulose) (HPC)) was 5 of 6 and 3 of 3. The T/C (dose: 37.5 mg/kg/injection, schedule: Q04DX003 (ip), vehicle: Klucel (hydroxypropylcellulose) (HPC)) was 170 [2 of 3 alive], 176, 184, 186, 204, 213 (2×), 214, 233, 240, 243, 245, 247 (2×), 252, 253, 257, 258, 259 (2×), 265, 267, 268, 270 (2×), 273, 280, 281, 282, 288 (4×), 295 % of control, the T/C (dose: 50.0 mg/kg/injection, schedule: Q01DX005 (ip), vehicle: Klucel (hydroxypropylcellulose) (HPC), evaluated on day 30) was 102, 115, 147, 171, 209, 212, 218, 223, 241, 245, 253, 262, 265, 267, 269, 270, 272, 275 (3×), 277, 280, 285 (2×), 288, 288 [5 of 6 alive], 291 % of control and the T/C (dose: 50.0 mg/kg/injection, schedule: Q01DX005 (ip), vehicle: Klucel (hydroxypropylcellulose) (HPC), evaluated on day 35) was 368 % of control. The survivor count (dose: 50.0 mg/kg/injection, schedule: Q01DX005 (ip), vehicle: Klucel (hydroxypropylcellulose) (HPC)) was 3 of 3 and 6 of 6, the T/C (dose: 50.0 mg/kg/injection, schedule: Q01DX009 (ip), vehicle: Klucel (hydroxypropylcellulose) (HPC), evaluated on day 30) was 89, 99, 102, 104 (2×), 105, 107, 110 (2×), 114 (2×), 116, 126, 127, 130, 132, 141, 185, 219, 240, 243, 251, 274, 288 % of control and the T/C (dose: 50.0 mg/kg/injection, schedule: Q01DX009 (ip), vehicle: Klucel (hydroxypropylcellulose) (HPC), evaluated on day 35) was 102 and 321 % of control. The survivor count (dose: 50.0 mg/kg/injection, schedule: Q01DX009 (ip), vehicle: Klucel (hydroxypropylcellulose) (HPC)) was 5 of 6, 2 of 2, 3 of 3, 6 of 6 and the T/C (dose: 62.5 mg/kg/injection, schedule: Q01DX001 (ip), vehicle: Klucel (hydroxypropylcellulose) (HPC)) was 96, 100, 132, 137, 142, 157, 193, 203 (3×), 204, 215, 220, 221 (2×), 222, 226, 236, 237, 240 (2×), 248, 250, 252 (2×), 257 (2×), 260, 265, 269, 289 % of control.
